# Test results from the supplement of paper PMC8728848.
# The list shows a part of the results.
# B1: Clec12b (Mus musculus), Q149M0 (protein)
# chain: MSDEVTYATLMLQDSARVRGNQDGNNLRKEGHPAQSSLWRGAALSLMTLCLVLVTGLVTLATMFLQVSNDINSDSEKLSQLQKSIHPQQDNLSESLNSSRKSLTEESLQSQISALLERQEQMATKLCKEFLIHASDHKCNPCPKTWQWYGNSCYYFSINEEKSWSDSRKDCIDKNATLVKIDSTEERDLLQSQLSLTFSFFWLGLSWNSSGRNWLWEDGSFPPPTLFSDKELASFNGSRDCAYFERGNIYASRCSAEIPWICEKTASLVKTEDLD
# Key:
# Experiment in all cases: glycan array binding signal (z-score within array); higher = stronger binding
# Details in all cases: glycan notation: IUPAC condensed, linker removed
# [1] = target: Fuc(a1-2)Gal(b1-4)GlcNAc(b1-3)Gal(b1-4)GlcNAc(b1-2)Man(a1-3)[Fuc(a1-2)Gal(b1-4)GlcNAc(b1-3)Gal(b1-4)GlcNAc(b1-2)Man(a1-6)]Man(b1-4)GlcNAc(b1-4)GlcNAc
# Outline: (§1)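 The binding signal is a Z-score computed within each array and averaged over linkers. Arrays of the same protein sequence at different concentrations or buffers were also averaged together. Data originate from 3228 arrays in the Consortium for Functional Glycomics database, kept only where the protein sequence was available.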
# [2] = target: Fuc(a1-2)Gal(b1-4)GlcNAc(b1-3)Gal(b1-4)GlcNAc(b1-3)Gal(b1-4)GlcNAc
# Outline: as §1
# [3] = target: Fuc(a1-2)Gal(b1-4)GlcNAc(b1-3)GalNAc
# Outline: as §1
# [4] = target: Fuc(a1-2)Gal(b1-4)GlcNAc(b1-3)[Fuc(a1-2)Gal(b1-4)GlcNAc(b1-6)]GalNAc
# Outline: as §1
# [5] = target: Fuc(a1-2)Gal(b1-4)GlcNAc(b1-3)[Fuc(a1-3)[Gal(b1-4)]GlcNAc(b1-6)]Gal(b1-4)Glc
# Outline: as §1
# [6] = target: Fuc(a1-2)Gal(b1-4)GlcNAc(b1-6)GalNAc
# Outline: as §1
# [7] = target: Fuc(a1-2)Gal(b1-4)GlcNAc6S
# Outline: as §1
# [8] = target: Fuc(a1-2)Gal(b1-4)[Fuc(a1-3)]GlcNAc
# Outline: as §1
# [9] = target: Fuc(a1-2)Gal(b1-4)[Fuc(a1-3)]GlcNAc(b1-2)Man(a1-3)[Fuc(a1-2)Gal(b1-4)[Fuc(a1-3)]GlcNAc(b1-2)Man(a1-6)]Man(b1-4)GlcNAc(b1-4)[Fuc(a1-6)]GlcNAc
# Outline: as §1
# [10] = target: Fuc(a1-2)Gal(b1-4)[Fuc(a1-3)]GlcNAc(b1-2)[Fuc(a1-2)Gal(b1-4)[Fuc(a1-3)]GlcNAc(b1-4)]Man(a1-3)[Fuc(a1-2)Gal(b1-4)[Fuc(a1-3)]GlcNAc(b1-2)Man(a1-6)]Man(b1-4)GlcNAc(b1-4)GlcNAc
# Outline: as §1
# [11] = target: Fuc(a1-2)Gal(b1-4)[Fuc(a1-3)]GlcNAc(b1-3)Gal(b1-4)[Fuc(a1-3)]GlcNAc
# Outline: as §1
# [12] = target: Fuc(a1-2)Gal(b1-4)[Fuc(a1-3)]GlcNAc(b1-3)Gal(b1-4)[Fuc(a1-3)]GlcNAc(b1-3)Gal(b1-4)[Fuc(a1-3)]GlcNAc
# Outline: as §1
# [13] = target: Fuc(a1-2)Gal(b1-4)[Fuc(a1-3)]GlcNAc(b1-3)GalNAc
# Outline: as §1
# [14] = target: Fuc(a1-2)Gal(b1-4)[Fuc(a1-3)]GlcNAc(b1-3)[Neu5Ac(a2-6)Gal(b1-4)GlcNAc(b1-6)]Gal(b1-4)Glc
# Outline: as §1
# [15] = target: Fuc(a1-2)Gal3S(b1-4)GlcNAc
# Outline: as §1
# [16] = target: Fuc(a1-2)Gal6S(b1-3)GlcNAc
# Outline: as §1
# [17] = target: Fuc(a1-2)Gal6S(b1-3)GlcNAc6S
# Outline: as §1
# Fuc(a1-2)Gal6S(b1-4)Glc = target: Fuc(a1-2)Gal6S(b1-4)Glc
# Outline: as §1
# [18] = target: Fuc(a1-2)Gal6S(b1-4)Glc6S
# Outline: as §1
# Fuc(a1-2)[Gal(a1-3)]Gal = target: Fuc(a1-2)[Gal(a1-3)]Gal
# Outline: as §1
# [19] = target: Fuc(a1-2)[Gal(a1-3)]Gal(b1-3)GalNAc
# Outline: as §1
# [20] = target: Fuc(a1-2)[Gal(a1-3)]Gal(b1-3)GalNAc(b1-3)Gal(a1-4)Gal(b1-4)Glc
# Outline: as §1
# [21] = target: Fuc(a1-2)[Gal(a1-3)]Gal(b1-3)GlcNAc
# Outline: as §1
# [22] = target: Fuc(a1-2)[Gal(a1-3)]Gal(b1-3)GlcNAc(b1-2)Man(a1-3)[Fuc(a1-2)[Gal(a1-3)]Gal(b1-3)GlcNAc(b1-2)Man(a1-6)]Man(b1-4)GlcNAc(b1-4)GlcNAc
# Outline: as §1
# [23] = target: Fuc(a1-2)[Gal(a1-3)]Gal(b1-3)GlcNAc(b1-2)Man(a1-3)[Fuc(a1-2)[Gal(a1-3)]Gal(b1-3)GlcNAc(b1-2)Man(a1-6)]Man(b1-4)GlcNAc(b1-4)[Fuc(a1-6)]GlcNAc
# Outline: as §1
# [24] = target: Fuc(a1-2)[Gal(a1-3)]Gal(b1-3)GlcNAc(b1-3)GalNAc
# Outline: as §1
# [25] = target: Fuc(a1-2)[Gal(a1-3)]Gal(b1-3)GlcNAc(b1-6)GalNAc
# Outline: as §1
# [26] = target: Fuc(a1-2)[Gal(a1-3)]Gal(b1-4)Glc
# Outline: as §1
# [27] = target: Fuc(a1-2)[Gal(a1-3)]Gal(b1-4)GlcNAc
# Outline: as §1
# [28] = target: Fuc(a1-2)[Gal(a1-3)]Gal(b1-4)GlcNAc(b1-2)Man
# Outline: as §1
# [29] = target: Fuc(a1-2)[Gal(a1-3)]Gal(b1-4)GlcNAc(b1-2)Man(a1-3)[Fuc(a1-2)[Gal(a1-3)]Gal(b1-4)GlcNAc(b1-2)Man(a1-6)]Man(b1-4)GlcNAc(b1-4)GlcNAc
# Outline: as §1
# [30] = target: Fuc(a1-2)[Gal(a1-3)]Gal(b1-4)GlcNAc(b1-2)Man(a1-3)[Fuc(a1-2)[Gal(a1-3)]Gal(b1-4)GlcNAc(b1-2)Man(a1-6)]Man(b1-4)GlcNAc(b1-4)[Fuc(a1-6)]GlcNAc
# Outline: as §1
# [31] = target: Fuc(a1-2)[Gal(a1-3)]Gal(b1-4)GlcNAc(b1-3)GalNAc
# Outline: as §1
# [32] = target: Fuc(a1-2)[Gal(a1-3)]Gal(b1-4)GlcNAc(b1-3)[Fuc(a1-2)[Gal(a1-3)]Gal(b1-4)GlcNAc(b1-6)]GalNAc
# Outline: as §1
# [33] = target: Fuc(a1-2)[Gal(a1-3)]Gal(b1-4)GlcNAc(b1-6)GalNAc
# Outline: as §1
# [34] = target: Fuc(a1-2)[Gal(a1-3)]Gal(b1-4)[Fuc(a1-3)]Glc
# Outline: as §1
# [35] = target: Fuc(a1-2)[Gal(a1-3)]Gal(b1-4)[Fuc(a1-3)]GlcNAc
# Outline: as §1
binder,measurement,setting,value
B1,glycan array binding signal (z-score),[1],-0.327
same,glycan array binding signal (z-score),[2],-0.669
same,glycan array binding signal (z-score),[3],-0.546
same,glycan array binding signal (z-score),[4],-0.299
same,glycan array binding signal (z-score),[5],-0.318
same,glycan array binding signal (z-score),[6],0.471
same,glycan array binding signal (z-score),[7],-0.417
same,glycan array binding signal (z-score),[8],0.074
same,glycan array binding signal (z-score),[9],-0.372
same,glycan array binding signal (z-score),[10],2.82
same,glycan array binding signal (z-score),[11],-0.54
same,glycan array binding signal (z-score),[12],0.741
same,glycan array binding signal (z-score),[13],-0.496
same,glycan array binding signal (z-score),[14],-0.177
same,glycan array binding signal (z-score),[15],0.102
same,glycan array binding signal (z-score),[16],0.009
same,glycan array binding signal (z-score),[17],0.735
same,glycan array binding signal (z-score),Fuc(a1-2)Gal6S(b1-4)Glc,0.808
same,glycan array binding signal (z-score),[18],-0.568
same,glycan array binding signal (z-score),Fuc(a1-2)[Gal(a1-3)]Gal,0.573
same,glycan array binding signal (z-score),[19],-0.018
same,glycan array binding signal (z-score),[20],-0.052
same,glycan array binding signal (z-score),[21],1.61
same,glycan array binding signal (z-score),[22],0.021
same,glycan array binding signal (z-score),[23],-0.484
same,glycan array binding signal (z-score),[24],-0.552
same,glycan array binding signal (z-score),[25],0.184
same,glycan array binding signal (z-score),[26],0.465
same,glycan array binding signal (z-score),[27],-0.392
same,glycan array binding signal (z-score),[28],-0.596
same,glycan array binding signal (z-score),[29],0.853
same,glycan array binding signal (z-score),[30],-0.426
same,glycan array binding signal (z-score),[31],-0.152
same,glycan array binding signal (z-score),[32],0.043
same,glycan array binding signal (z-score),[33],-0.431
same,glycan array binding signal (z-score),[34],0.143
same,glycan array binding signal (z-score),[35],-0.445

# Exported bar-delimited: part of the list above
binder | measurement | setting | value
B1 | glycan array binding signal (z-score) | [25] | 0.184
same | glycan array binding signal (z-score) | [35] | -0.445
